Experimental findings from article PMC11189495 are described below.

Amino acid sequences for entries named in this document (tags omitted). Residues count along the entry.
UniProt O43699, residues 27-453: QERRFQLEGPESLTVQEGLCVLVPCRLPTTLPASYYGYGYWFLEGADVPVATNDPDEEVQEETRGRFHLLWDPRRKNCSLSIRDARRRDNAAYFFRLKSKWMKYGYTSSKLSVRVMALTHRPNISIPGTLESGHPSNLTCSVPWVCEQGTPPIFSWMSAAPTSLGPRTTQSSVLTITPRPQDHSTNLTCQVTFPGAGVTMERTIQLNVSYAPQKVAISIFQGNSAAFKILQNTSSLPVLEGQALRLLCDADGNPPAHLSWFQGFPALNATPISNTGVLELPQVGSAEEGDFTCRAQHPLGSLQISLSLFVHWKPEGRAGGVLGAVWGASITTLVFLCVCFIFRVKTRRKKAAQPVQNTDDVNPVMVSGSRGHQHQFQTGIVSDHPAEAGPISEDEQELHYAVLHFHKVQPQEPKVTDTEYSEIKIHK
UniProt P60953: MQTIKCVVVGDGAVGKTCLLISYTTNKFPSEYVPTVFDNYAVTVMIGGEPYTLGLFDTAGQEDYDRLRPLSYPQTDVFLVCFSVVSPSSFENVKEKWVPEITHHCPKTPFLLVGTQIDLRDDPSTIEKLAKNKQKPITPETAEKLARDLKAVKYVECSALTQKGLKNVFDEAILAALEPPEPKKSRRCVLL
UniProt Q8NF50: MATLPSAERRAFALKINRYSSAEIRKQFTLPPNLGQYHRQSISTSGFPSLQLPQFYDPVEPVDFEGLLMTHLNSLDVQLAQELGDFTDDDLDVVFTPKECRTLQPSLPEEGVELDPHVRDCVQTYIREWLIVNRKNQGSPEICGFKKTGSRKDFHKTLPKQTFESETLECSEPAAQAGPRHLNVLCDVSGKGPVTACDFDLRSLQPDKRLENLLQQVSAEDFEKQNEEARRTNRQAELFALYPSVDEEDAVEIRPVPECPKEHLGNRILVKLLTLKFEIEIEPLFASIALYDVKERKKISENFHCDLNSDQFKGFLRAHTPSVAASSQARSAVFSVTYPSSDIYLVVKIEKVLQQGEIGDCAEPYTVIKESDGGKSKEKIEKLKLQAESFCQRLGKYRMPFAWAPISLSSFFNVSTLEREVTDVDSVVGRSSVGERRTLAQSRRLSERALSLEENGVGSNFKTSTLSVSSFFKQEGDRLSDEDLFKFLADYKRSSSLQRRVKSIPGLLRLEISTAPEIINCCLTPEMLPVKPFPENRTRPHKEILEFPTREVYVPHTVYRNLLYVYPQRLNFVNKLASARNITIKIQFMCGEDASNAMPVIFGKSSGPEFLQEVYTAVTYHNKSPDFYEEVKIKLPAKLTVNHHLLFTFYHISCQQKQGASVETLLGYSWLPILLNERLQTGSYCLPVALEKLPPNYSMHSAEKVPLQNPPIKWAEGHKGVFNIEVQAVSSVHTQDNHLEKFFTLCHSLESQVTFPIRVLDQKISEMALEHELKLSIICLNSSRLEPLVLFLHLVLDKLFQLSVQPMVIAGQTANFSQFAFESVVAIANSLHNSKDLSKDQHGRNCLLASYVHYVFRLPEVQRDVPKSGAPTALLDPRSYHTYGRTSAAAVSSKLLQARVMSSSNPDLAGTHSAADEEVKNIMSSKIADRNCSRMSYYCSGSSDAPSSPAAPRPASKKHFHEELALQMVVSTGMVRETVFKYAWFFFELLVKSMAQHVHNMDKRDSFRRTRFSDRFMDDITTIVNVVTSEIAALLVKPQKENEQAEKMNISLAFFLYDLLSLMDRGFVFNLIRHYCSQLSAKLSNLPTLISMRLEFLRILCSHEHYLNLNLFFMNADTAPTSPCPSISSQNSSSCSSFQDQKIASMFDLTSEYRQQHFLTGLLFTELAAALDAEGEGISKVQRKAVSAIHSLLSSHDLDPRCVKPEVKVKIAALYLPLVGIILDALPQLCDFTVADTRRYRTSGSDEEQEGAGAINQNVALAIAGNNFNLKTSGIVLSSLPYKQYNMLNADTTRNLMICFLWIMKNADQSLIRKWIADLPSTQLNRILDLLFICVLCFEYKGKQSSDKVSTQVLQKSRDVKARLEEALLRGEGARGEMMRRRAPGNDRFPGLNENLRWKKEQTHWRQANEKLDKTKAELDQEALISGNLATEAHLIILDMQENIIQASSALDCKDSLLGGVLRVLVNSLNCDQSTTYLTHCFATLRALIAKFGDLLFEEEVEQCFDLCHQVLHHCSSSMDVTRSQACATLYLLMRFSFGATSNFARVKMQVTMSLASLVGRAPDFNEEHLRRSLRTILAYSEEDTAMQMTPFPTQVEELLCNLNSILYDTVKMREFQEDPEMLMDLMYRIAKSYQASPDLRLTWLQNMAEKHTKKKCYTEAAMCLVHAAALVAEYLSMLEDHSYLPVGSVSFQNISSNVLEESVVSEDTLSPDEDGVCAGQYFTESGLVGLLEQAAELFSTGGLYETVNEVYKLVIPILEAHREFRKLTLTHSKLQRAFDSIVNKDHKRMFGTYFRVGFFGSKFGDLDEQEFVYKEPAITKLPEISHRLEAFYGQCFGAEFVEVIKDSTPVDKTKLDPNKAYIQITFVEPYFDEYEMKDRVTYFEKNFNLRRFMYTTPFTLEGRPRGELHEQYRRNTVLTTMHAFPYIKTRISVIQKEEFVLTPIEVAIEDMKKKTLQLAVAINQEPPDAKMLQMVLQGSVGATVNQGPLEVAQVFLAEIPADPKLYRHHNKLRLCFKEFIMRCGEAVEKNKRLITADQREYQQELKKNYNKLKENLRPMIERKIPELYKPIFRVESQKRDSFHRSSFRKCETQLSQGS
UniProt P42768: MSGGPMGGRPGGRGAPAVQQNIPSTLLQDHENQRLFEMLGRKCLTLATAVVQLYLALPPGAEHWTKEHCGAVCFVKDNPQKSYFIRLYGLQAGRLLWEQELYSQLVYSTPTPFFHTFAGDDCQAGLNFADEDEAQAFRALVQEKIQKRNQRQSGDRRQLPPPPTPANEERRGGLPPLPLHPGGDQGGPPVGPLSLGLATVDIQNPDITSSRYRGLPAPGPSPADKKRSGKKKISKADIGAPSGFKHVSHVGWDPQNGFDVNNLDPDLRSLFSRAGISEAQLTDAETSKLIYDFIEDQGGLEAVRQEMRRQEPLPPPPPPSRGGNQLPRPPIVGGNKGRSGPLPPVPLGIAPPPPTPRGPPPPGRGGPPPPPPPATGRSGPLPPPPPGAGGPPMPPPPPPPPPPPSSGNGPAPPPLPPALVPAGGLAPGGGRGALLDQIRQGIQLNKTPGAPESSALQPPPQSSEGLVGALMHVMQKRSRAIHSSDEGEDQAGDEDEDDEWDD

Results are given in words; binding and its absence hold for the method and conditions named. Binding seen in cells or lysates may run through a third protein. Some binding calls cover weakened binding; strength is not graded here.

For assay [1], the target named is Siglec-6 (human (endogenous in MEC1-002 and primary B-CLL cells)) (UniProt O43699). In words: co-IP; lysates of MEC1-002 or primary CD19+ CD5+ B-CLL cells (3 patients); Dynabeads Protein G kit; anti-human Siglec-6 antibody (clone 2G6) or mouse IgG2b isotype control; immunoblot with DOCK8 antibody (EPR1251). A general note: In western blotting, separated proteins are transferred to a membrane and probed.

Assay [2] deals with GTP-bound Cdc42 (human (endogenous in MEC1-002)) (UniProt P60953). In words: pull-down; Cdc42 activation assay kit (Abcam, ab211163) used to pull down GTP-bound Cdc42 from MEC1-002 cells treated with 6 ug sTn for 1 min; GTP-Cdc42 and WASP detected by immunoblot; also cells blocked with 10 ug anti-Siglec-6 mAb JML-1 for 30 min, Siglec-6 KO and DOCK8 KO cells.

In the case of DOCK8 (from UniProt Q8NF50 1-2099), in assay [1], the binding entry is “binds”.

Regarding “WASP protein (from UniProt P42768 1-502)”, in assay [2], the binding entry is recorded as “binds”.
